These are yes or no findings as the source states them, for the method shown. Binding seen in cells or lysates may run through a third protein. Here binding means that the protein was enriched with, or labelled near, the bait; the list need not be complete. For part of these data: A no says only that the protein was not detected with the bait. Where a sequence is shown, tags or fusion partners need not be part of it. Each block holds one molecule with its values, some of them ahead of it.
Columns and labels:
[1] = target: T1, GS-MAX2 (MORE AXILLARY GROWTH 2, N-terminal GS tag) (Arabidopsis thaliana) (UniProt Q9SIM9); test: affinity purification with mass spectrometry; tandem affinity purification (IgG-Sepharose, AcTEV, streptavidin beads) of the N-terminally GS-tagged bait from Arabidopsis PSB-D cell culture extracts; cells treated 5 h with 0.01% acetone (mock) or 1 μM rac-GR24; two replicates each; LC-MS/MS; background proteins filtered out
T1 sequence: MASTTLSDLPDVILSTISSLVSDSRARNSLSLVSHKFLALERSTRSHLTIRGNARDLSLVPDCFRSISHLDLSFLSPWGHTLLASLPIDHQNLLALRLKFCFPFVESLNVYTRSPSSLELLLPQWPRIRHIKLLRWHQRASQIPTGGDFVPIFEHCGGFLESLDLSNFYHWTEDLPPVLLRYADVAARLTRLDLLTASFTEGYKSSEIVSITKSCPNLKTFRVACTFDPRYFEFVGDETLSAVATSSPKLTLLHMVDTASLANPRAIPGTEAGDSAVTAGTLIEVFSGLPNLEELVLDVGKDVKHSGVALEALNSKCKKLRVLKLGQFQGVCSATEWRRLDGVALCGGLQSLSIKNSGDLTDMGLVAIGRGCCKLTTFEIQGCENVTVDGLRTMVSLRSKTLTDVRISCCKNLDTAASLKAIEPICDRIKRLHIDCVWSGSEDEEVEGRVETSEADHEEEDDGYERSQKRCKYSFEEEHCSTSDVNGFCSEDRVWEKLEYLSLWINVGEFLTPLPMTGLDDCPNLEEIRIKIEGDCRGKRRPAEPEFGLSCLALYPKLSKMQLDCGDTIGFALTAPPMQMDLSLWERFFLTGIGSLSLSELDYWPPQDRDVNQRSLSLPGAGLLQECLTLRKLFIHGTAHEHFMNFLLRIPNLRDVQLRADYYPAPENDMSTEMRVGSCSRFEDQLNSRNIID

The chains behind the UniProt entries cited, without tags or fusion partners.
UniProt Q38931: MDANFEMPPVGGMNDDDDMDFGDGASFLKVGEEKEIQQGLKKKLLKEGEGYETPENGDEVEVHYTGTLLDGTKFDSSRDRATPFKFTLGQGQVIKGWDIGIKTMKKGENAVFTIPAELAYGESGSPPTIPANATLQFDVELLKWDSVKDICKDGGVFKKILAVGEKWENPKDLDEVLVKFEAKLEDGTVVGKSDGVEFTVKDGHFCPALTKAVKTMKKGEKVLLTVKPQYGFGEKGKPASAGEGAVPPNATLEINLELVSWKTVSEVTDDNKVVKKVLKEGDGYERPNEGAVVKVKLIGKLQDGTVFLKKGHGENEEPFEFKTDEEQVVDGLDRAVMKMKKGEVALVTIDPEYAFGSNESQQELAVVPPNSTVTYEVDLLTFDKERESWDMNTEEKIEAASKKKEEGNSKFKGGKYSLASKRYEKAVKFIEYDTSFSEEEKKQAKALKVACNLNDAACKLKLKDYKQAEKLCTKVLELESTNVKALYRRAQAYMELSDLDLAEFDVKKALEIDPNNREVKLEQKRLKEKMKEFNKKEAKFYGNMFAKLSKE

[2] = target: T2, GS-MAX2ΔFBOX (MAX2 without its first 53 amino acids, N-terminal GS tag) (Arabidopsis thaliana) (UniProt Q9SIM9); test: as above
T2 sequence: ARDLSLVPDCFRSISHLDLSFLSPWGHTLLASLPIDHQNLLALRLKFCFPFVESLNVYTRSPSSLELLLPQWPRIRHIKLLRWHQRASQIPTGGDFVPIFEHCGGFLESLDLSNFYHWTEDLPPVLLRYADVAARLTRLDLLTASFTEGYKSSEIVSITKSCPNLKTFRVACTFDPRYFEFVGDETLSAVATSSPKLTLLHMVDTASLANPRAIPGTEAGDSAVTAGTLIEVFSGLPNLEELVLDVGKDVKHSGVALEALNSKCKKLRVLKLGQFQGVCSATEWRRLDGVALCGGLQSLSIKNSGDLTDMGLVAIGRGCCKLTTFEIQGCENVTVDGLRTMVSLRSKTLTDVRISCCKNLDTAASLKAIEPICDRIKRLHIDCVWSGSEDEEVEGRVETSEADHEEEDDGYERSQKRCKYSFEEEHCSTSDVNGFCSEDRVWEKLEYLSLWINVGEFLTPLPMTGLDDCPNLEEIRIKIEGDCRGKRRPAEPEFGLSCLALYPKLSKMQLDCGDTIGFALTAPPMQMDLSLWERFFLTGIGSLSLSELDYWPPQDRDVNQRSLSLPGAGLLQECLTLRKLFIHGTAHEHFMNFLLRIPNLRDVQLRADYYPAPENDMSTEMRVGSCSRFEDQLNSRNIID

[3] = target: T3, KAI2-GFP (Arabidopsis thaliana) (UniProt Q9SZU7); test: affinity purification with mass spectrometry; single-step purification on GFP-Trap-A of D14-GFP or KAI2-GFP from Arabidopsis PSB-D cell culture extracts; cells treated 15 min with 1 μM rac-GR24; three replicates; label-free quantification, KAI2 compared with D14
T3 sequence: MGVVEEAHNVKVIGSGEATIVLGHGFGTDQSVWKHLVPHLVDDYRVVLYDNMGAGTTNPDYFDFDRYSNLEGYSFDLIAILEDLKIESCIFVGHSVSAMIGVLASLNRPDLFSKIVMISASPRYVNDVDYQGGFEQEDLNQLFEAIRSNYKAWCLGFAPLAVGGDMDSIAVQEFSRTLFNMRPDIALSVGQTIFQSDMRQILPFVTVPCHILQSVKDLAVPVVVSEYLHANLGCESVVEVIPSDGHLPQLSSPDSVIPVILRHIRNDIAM

[4] = target: T1, GS-MAX2 (MORE AXILLARY GROWTH 2, N-terminal GS tag) (Arabidopsis thaliana); test: condition: only cells treated with 1 μM rac-GR24 for 5 h; affinity purification with mass spectrometry; as a1, only the samples of cells treated 5 h with 1 μM rac-GR24
[5] = target: T4, GS-MAX2 (MORE AXILLARY GROWTH 2, N-terminal GS tag) (Arabidopsis thaliana), Q9SIM9; test: affinity purification with mass spectrometry; tandem affinity purification (IgG-Sepharose, AcTEV, streptavidin beads) of the N-terminally GS-tagged bait from Arabidopsis PSB-D cell culture extracts; cells treated 5 h with 0.01% acetone (mock) or 1 μM rac-GR24; two replicates each; LC-MS/MS; background proteins filtered out; conditions: remark: other sources report otherwise
T4 chain: T1 sequence

[6] = target: T5, D14-GFP (Arabidopsis thaliana), Q9SQR3; test: affinity purification with mass spectrometry; single-step purification on GFP-Trap-A of D14-GFP or KAI2-GFP from Arabidopsis PSB-D cell culture extracts; cells treated 15 min with 1 μM rac-GR24; three replicates; label-free quantification, KAI2 compared with D14; conditions: remark: other sources report otherwise
T5 chain: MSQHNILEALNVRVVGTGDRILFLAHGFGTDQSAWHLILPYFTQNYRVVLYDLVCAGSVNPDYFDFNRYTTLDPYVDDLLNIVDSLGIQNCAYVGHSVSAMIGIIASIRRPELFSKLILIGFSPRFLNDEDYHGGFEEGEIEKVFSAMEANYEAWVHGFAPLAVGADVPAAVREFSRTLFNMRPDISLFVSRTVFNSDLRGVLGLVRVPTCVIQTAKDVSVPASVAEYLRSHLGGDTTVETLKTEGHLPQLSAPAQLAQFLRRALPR

Molecule: ROF1 (from UniProt Q38931 1-551)
binding [1]: no binding | binding [2]: binds | binding [3]: binds

Molecule: PHYTOCHROME-ASSOCIATED PROTEIN PHOSPHATASE 5 (PAPP5), endogenous (enzyme)
binding [1]: binds | binding [2]: binds | binding [4]: no binding

B2: MORE AXILLARY GROWTH 2 (MAX2), endogenous, Q9SIM9 1-693 (protein)
chain: T1 sequence
binding [6]: no binding

Now from value to molecule:

binding [5]: no binding
B1: DWARF 14 (D14), endogenous, Q9SQR3 1-267 (receptor)
chain: T5 chain

binding [3]: no binding
B3: MORE AXILLARY GROWTH 2 (MAX2), endogenous (protein, UniProt Q9SIM9 1-693)
chain: T1 sequence
